No constants are given. Whether binding was seen depends on the method and setting. Binding seen in cells or lysates may run through a third protein. Some results given as binding are weak or reduced against the parent protein; the word gives no strength.
T1: Dual-specificity tyrosine-regulated kinase 4 (DYRK4), overexpressed in Huh7 cells (UniProt Q9NR20)
T1 sequence: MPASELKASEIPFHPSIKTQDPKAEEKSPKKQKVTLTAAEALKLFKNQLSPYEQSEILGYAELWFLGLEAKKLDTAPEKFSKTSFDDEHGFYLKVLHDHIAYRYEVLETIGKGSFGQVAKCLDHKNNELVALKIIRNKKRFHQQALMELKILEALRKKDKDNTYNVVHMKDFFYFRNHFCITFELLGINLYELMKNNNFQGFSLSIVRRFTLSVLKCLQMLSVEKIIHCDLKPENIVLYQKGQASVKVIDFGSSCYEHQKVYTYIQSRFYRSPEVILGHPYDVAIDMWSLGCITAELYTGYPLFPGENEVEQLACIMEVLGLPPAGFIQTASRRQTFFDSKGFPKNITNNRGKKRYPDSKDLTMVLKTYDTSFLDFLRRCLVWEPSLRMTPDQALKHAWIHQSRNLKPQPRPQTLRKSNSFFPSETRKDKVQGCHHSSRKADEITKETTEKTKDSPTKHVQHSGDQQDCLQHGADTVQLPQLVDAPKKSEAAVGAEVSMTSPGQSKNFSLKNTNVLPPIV

By UniProt entry, the sequences of proteins in these tests, tags left out.
UniProt P40763: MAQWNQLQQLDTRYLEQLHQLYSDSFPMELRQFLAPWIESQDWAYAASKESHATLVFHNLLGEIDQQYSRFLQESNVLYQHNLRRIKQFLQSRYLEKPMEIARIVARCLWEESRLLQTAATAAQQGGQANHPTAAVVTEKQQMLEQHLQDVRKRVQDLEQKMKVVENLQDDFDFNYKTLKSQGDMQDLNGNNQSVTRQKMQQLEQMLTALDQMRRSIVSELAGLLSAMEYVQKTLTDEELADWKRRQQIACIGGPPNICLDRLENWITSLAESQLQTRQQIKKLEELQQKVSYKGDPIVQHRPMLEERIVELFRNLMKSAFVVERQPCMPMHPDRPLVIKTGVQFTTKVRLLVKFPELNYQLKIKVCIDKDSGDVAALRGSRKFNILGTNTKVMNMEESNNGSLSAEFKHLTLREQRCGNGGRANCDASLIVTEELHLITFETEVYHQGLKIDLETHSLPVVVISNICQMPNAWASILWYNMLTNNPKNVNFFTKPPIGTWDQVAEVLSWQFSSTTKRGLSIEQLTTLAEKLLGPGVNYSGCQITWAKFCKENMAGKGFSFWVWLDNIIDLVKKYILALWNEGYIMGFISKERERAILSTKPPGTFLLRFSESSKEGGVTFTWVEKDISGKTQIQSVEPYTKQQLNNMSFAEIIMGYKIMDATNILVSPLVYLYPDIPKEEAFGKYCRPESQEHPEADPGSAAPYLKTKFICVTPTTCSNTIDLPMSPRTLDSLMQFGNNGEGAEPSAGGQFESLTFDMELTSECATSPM

T2: DYRK4 in TAK1-/- HCCLM3 cells (UniProt Q9NR20)
T2 sequence: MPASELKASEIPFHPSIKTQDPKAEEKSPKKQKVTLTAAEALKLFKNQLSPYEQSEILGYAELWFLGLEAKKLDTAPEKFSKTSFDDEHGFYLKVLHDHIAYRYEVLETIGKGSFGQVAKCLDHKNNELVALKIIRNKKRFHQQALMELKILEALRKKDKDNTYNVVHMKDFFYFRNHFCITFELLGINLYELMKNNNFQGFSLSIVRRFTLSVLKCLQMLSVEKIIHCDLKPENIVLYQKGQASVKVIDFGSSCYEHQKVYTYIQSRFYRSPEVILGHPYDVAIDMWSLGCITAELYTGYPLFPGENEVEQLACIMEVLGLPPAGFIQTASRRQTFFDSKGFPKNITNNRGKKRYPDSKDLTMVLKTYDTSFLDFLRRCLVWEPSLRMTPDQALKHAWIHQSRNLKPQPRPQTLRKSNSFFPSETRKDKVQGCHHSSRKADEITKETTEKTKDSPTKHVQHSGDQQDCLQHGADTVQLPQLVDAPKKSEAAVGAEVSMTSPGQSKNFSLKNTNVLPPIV


Experiments:
[1] = target: T1, Dual-specificity tyrosine-regulated kinase 4 (DYRK4), overexpressed in Huh7 cells; experiment: co-IP; DYRK4 and STAT3 in Huh7 cells; Flag-beads at 4 °C for 6 h (Fig. 6B)
[2] = target: T1, Dual-specificity tyrosine-regulated kinase 4 (DYRK4), overexpressed in Huh7 cells; experiment: co-IP; Huh7 cells with the pHBV1.3 plasmid, overexpressed proteins; lysate incubated with Flag-beads at 4 °C for 6 h, washed five times (Fig. 4A, 4G)
[3] = target: T1, Dual-specificity tyrosine-regulated kinase 4 (DYRK4), overexpressed in Huh7 cells; experiment: co-IP; DYRK4 overexpressed in Huh7 cells with the pHBV1.3 plasmid for 48 h; endogenous TAK1-TABs; Flag-beads at 4 °C for 6 h (Fig. 4B)
[4] = target: T2, DYRK4 in TAK1-/- HCCLM3 cells; experiment: co-IP; TAK1-/- HCCLM3 cell line (CRISPR-Cas9) transfected with the pHBV1.3 plasmid; Flag-beads at 4 °C for 6 h (Fig. 4D)

| Molecule | binding [2] | other results |
| --- | --- | --- |
| Signal transducers and activators of transcription 3 (STAT3) (from UniProt P40763 1-770) | – | binding [1]: binds |
| TGF-beta activated kinase 1 (TAK1), overexpressed in Huh7 cells (enzyme, UniProt O43318 1-606) MSTASAASSSSSSSAGEMIEAPSQVLNFEEIDYKEIEVEEVVGRGAFGVVCKAKWRAKDVAIKQIESESERKAFIVELRQLSRVNHPNIVKLYGACLNPVCLVMEYAEGGSLYNVLHGAEPLPYYTAAHAMSWCLQCSQGVAYLHSMQPKALIHRDLKPPNLLLVAGGTVLKICDFGTACDIQTHMTNNKGSAAWMAPEVFEGSNYSEKCDVFSWGIILWEVITRRKPFDEIGGPAFRIMWAVHNGTRPPLIKNLPKPIESLMTRCWSKDPSQRPSMEEIVKIMTHLMRYFPGADEPLQYPCQYSDEGQSNSATSTGSFMDIASTNTSNKSDTNMEQVPATNDTIKRLESKLLKNQAKQQSESGRLSLGASRGSSVESLPPTSEGKRMSADMSEIEARIAATTAYSKPKRGHRKTASFGNILDVPEIVISGNGQPRRRSIQDLTVTGTEPGQVSSRSSSPSVRMITTSGPTSEKPTRSHPWTPDDSTDTNGSDNSIPMAYLTLDHQLQPLAPCPNSKESMAVFEQHCKMAQEYMKVQTEIALLLQRKQELVAELDQDEKDQQNTSRLVQEHKKLLDENKSLSTYYQQCKKQLEVIRSQQQKRQGTS | binds | – |
| endogenous TGF-beta activated kinase 1 (TAK1) (enzyme, UniProt O43318 1-606) MSTASAASSSSSSSAGEMIEAPSQVLNFEEIDYKEIEVEEVVGRGAFGVVCKAKWRAKDVAIKQIESESERKAFIVELRQLSRVNHPNIVKLYGACLNPVCLVMEYAEGGSLYNVLHGAEPLPYYTAAHAMSWCLQCSQGVAYLHSMQPKALIHRDLKPPNLLLVAGGTVLKICDFGTACDIQTHMTNNKGSAAWMAPEVFEGSNYSEKCDVFSWGIILWEVITRRKPFDEIGGPAFRIMWAVHNGTRPPLIKNLPKPIESLMTRCWSKDPSQRPSMEEIVKIMTHLMRYFPGADEPLQYPCQYSDEGQSNSATSTGSFMDIASTNTSNKSDTNMEQVPATNDTIKRLESKLLKNQAKQQSESGRLSLGASRGSSVESLPPTSEGKRMSADMSEIEARIAATTAYSKPKRGHRKTASFGNILDVPEIVISGNGQPRRRSIQDLTVTGTEPGQVSSRSSSPSVRMITTSGPTSEKPTRSHPWTPDDSTDTNGSDNSIPMAYLTLDHQLQPLAPCPNSKESMAVFEQHCKMAQEYMKVQTEIALLLQRKQELVAELDQDEKDQQNTSRLVQEHKKLLDENKSLSTYYQQCKKQLEVIRSQQQKRQGTS | – | binding [3]: binds |
| TAB1 in TAK1-/- HCCLM3 cells (protein, UniProt Q15750 1-504) MAAQRRSLLQSEQQPSWTDDLPLCHLSGVGSASNRSYSADGKGTESHPPEDSWLKFRSENNCFLYGVFNGYDGNRVTNFVAQRLSAELLLGQLNAEHAEADVRRVLLQAFDVVERSFLESIDDALAEKASLQSQLPEGVPQHQLPPQYQKILERLKTLEREISGGAMAVVAVLLNNKLYVANVGTNRALLCKSTVDGLQVTQLNVDHTTENEDELFRLSQLGLDAGKIKQVGIICGQESTRRIGDYKVKYGYTDIDLLSAAKSKPIIAEPEIHGAQPLDGVTGFLVLMSEGLYKALEAAHGPGQANQEIAAMIDTEFAKQTSLDAVAQAVVDRVKRIHSDTFASGGERARFCPRHEDMTLLVRNFGYPLGEMSQPTPSPAPAAGGRVYPVSVPYSSAQSTSKTSVTLSLVMPSQGQMVNGAHSASTLDEATPTLTNQSPTLTLQSTNTHTQSSSSSSDGGLFRSRPAHSLPPGEDGRVEPYVDFAEFYRLWSVDHGEQSVVTAP | – | binding [4]: binds |
| TGF-beta-activated kinase 1/MAP3K7 binding protein 3 (TAB3), overexpressed in Huh7 cells (protein, UniProt Q8N5C8 1-712) MAQSSPQLDIQVLHDLRQRFPEIPEGVVSQCMLQNNNNLEACCRALSQESSKYLYMEYHSPDDNRMNRNRLLHINLGIHSPSSYHPGDGAQLNGGRTLVHSSSDGHIDPQHAAGKQLICLVQEPHSAPAVVAATPNYNPFFMNEQNRSAATPPSQPPQQPSSMQTGMNPSAMQGPSPPPPPPSYMHIPRYSTNPITVTVSQNLPSGQTVPRALQILPQIPSNLYGSPGSIYIRQTSQSSSGRQTPQSTPWQSSPQGPVPHYSQRPLPVYPHQQNYQPSQYSPKQQQIPQSAYHSPPPSQCPSPFSSPQHQVQPSQLGHIFMPPSPSTTPPHPYQQGPPSYQKQGSHSVAYLPYTASSLSKGSMKKIEITVEPSQRPGTAINRSPSPISNQPSPRNQHSLYTATTPPSSSPSRGISSQPKPPFSVNPVYITYTQPTGPSCTPSPSPRVIPNPTTVFKITVGRATTENLLNLVDQEERSAAPEPIQPISVIPGSGGEKGSHKYQRSSSSGSDDYAYTQALLLHQRARMERLAKQLKLEKEELERLKSEVNGMEHDLMQRRLRRVSCTTAIPTPEEMTRLRSMNRQLQINVDCTLKEVDLLQSRGNFDPKAMNNFYDNIEPGPVVPPKPSKKDSSDPCTIERKARRISVTSKVQADIHDTQAAAADEHRTGSTQSPRTQPRDEDYEGAPWNCDSCTFLNHPALNRCEQCEMPRYT | binds | – |
| TGF-beta-activated kinase 1/MAP3K7 binding protein 2 (TAB2), overexpressed in Huh7 cells (protein, UniProt Q9NYJ8 1-693) MAQGSHQIDFQVLHDLRQKFPEVPEVVVSRCMLQNNNNLDACCAVLSQESTRYLYGEGDLNFSDDSGISGLRNHMTSLNLDLQSQNIYHHGREGSRMNGSRTLTHSISDGQLQGGQSNSELFQQEPQTAPAQVPQGFNVFGMSSSSGASNSAPHLGFHLGSKGTSSLSQQTPRFNPIMVTLAPNIQTGRNTPTSLHIHGVPPPVLNSPQGNSIYIRPYITTPGGTTRQTQQHSGWVSQFNPMNPQQVYQPSQPGPWTTCPASNPLSHTSSQQPNQQGHQTSHVYMPISSPTTSQPPTIHSSGSSQSSAHSQYNIQNISTGPRKNQIEIKLEPPQRNNSSKLRSSGPRTSSTSSSVNSQTLNRNQPTVYIAASPPNTDELMSRSQPKVYISANAATGDEQVMRNQPTLFISTNSGASAASRNMSGQVSMGPAFIHHHPPKSRAIGNNSATSPRVVVTQPNTKYTFKITVSPNKPPAVSPGVVSPTFELTNLLNHPDHYVETENIQHLTDPTLAHVDRISETRKLSMGSDDAAYTQALLVHQKARMERLQRELEIQKKKLDKLKSEVNEMENNLTRRRLKRSNSISQIPSLEEMQQLRSCNRQLQIDIDCLTKEIDLFQARGPHFNPSAIHNFYDNIGFVGPVPPKPKDQRSIIKTPKTQDTEDDEGAQWNCTACTFLNHPALIRCEQCEMPRHF | binds | – |

Continued, in another order:

| binding [2] | Molecule | other results |
| --- | --- | --- |
| binds | TGF-beta activated kinase 1 (MAP3K7) binding protein 1 (TAB1), overexpressed in Huh7 cells (protein, UniProt Q15750 1-504) MAAQRRSLLQSEQQPSWTDDLPLCHLSGVGSASNRSYSADGKGTESHPPEDSWLKFRSENNCFLYGVFNGYDGNRVTNFVAQRLSAELLLGQLNAEHAEADVRRVLLQAFDVVERSFLESIDDALAEKASLQSQLPEGVPQHQLPPQYQKILERLKTLEREISGGAMAVVAVLLNNKLYVANVGTNRALLCKSTVDGLQVTQLNVDHTTENEDELFRLSQLGLDAGKIKQVGIICGQESTRRIGDYKVKYGYTDIDLLSAAKSKPIIAEPEIHGAQPLDGVTGFLVLMSEGLYKALEAAHGPGQANQEIAAMIDTEFAKQTSLDAVAQAVVDRVKRIHSDTFASGGERARFCPRHEDMTLLVRNFGYPLGEMSQPTPSPAPAAGGRVYPVSVPYSSAQSTSKTSVTLSLVMPSQGQMVNGAHSASTLDEATPTLTNQSPTLTLQSTNTHTQSSSSSSDGGLFRSRPAHSLPPGEDGRVEPYVDFAEFYRLWSVDHGEQSVVTAP | – |
| binds | TAB1 N-domain (1-363 aa), N-terminal pseudophosphatase domain (domain or fragment, UniProt Q15750 1-363) MAAQRRSLLQSEQQPSWTDDLPLCHLSGVGSASNRSYSADGKGTESHPPEDSWLKFRSENNCFLYGVFNGYDGNRVTNFVAQRLSAELLLGQLNAEHAEADVRRVLLQAFDVVERSFLESIDDALAEKASLQSQLPEGVPQHQLPPQYQKILERLKTLEREISGGAMAVVAVLLNNKLYVANVGTNRALLCKSTVDGLQVTQLNVDHTTENEDELFRLSQLGLDAGKIKQVGIICGQESTRRIGDYKVKYGYTDIDLLSAAKSKPIIAEPEIHGAQPLDGVTGFLVLMSEGLYKALEAAHGPGQANQEIAAMIDTEFAKQTSLDAVAQAVVDRVKRIHSDTFASGGERARFCPRHEDMTLLVR | – |
